In PubChem BioAssay AID901 (National Center for Advancing Translational Sciences (NCATS), 2007):
Some of the results follow. The main result of the screen is listed elsewhere. These columns were measured beside it and carry no call. Compounds called inactive in the main read-out are mostly missing here. Words in brackets tell the shape of the fitted curve; partial curves, single points and poor fits give uncertain potencies.

Test: qHTS Assay for Identifying the Cell-Membrane Permeable IMPase Inhibitors
Details: CHO-M1 cells, IP1 accumulation, HTRF TR-FRET ratio; measured here: donor channel 620 nm AC50

Q: With `O=C(Nc1cc(C(=O)N2CCOCC2)ccc1N1CCCC1)c1cccs1` as the molecule, how does the AC50 read?
A: 5.62 µM [falling, single point]

Q: For `Nn1c(SCC(=O)Nc2ccc(Oc3ccccc3)cc2)nnc1C1CC1`, which AC50 is on record?
A: 25.1 µM [falling, single point]

Q: Which AC50 does the source give for `COc1ccc(-c2nc(-c3ccc(Br)cc3)no2)c(OC)c1` here?
A: 5.01 µM [falling, single point]

Q: For `Cc1ccc(-n2nnnc2-c2cnn(-c3ccc(F)cc3)c2C(F)(F)F)cc1`, which AC50 is on record?
A: 2 µM [falling, partial curve]

Q: With `Cc1ccc(Nc2c(-c3cccnc3)nc3ccc(Br)cn23)cc1` as the molecule, how does the AC50 read?
A: 11.2 µM [rising, single point]

Q: For `Cc1ccccc1N/C=C/C(=C(C#N)C#N)N(C)C`, which AC50 is on record?
A: 31.6 µM [falling, single point]

Q: Which AC50 does the source give for `CCC(C)N1C(=O)CCC1C(=O)O` (configuration not stated) here?
A: 0.501 µM [falling, partial curve, poor fit]

Q: Which AC50 does the source give for `O=C(CC12CC3CC(CC(C3)C1)C2)NCO` here?
A: 5.62 µM [rising, single point]

Q: With `O=C(Nc1cccc(C(F)(F)F)c1)C12CC3CC(CC(C3)C1)C2` as the molecule, how does the AC50 read?
A: 0.01 µM [falling, full curve, poor fit]

Q: Which AC50 does the source give for `Cc1ccc(NCc2nnc(SCC(=O)c3ccccc3)o2)c(C)c1` here?
A: 0.0251 µM [rising, full curve, poor fit]

Q: With `CCc1ccc(-c2nc(CN3CCC(C(=O)NCc4ccccc4OC)CC3)c(C)o2)cc1` as the molecule, how does the AC50 read?
A: 3.98 µM [falling, full curve]

Q: With `COc1ccc(OC)c(C2C(C(=O)Nc3ccc(F)cc3)=C(C)Nc3nc(CCCO)nn32)c1` (configuration not stated) as the molecule, how does the AC50 read?
A: 1.26 µM [falling, single point]

Q: For `CCN1CCN(C(=O)Cn2ncc3ccsc3c2=O)CC1`, which AC50 is on record?
A: 35.5 µM [falling, partial curve, poor fit]

Q: For `CCCCCCn1c(N2CCN(c3cccc(Cl)c3)CC2)nc2c1c(=O)[nH]c(=O)n2C`, which AC50 is on record?
A: 0.0158 µM [rising, full curve, poor fit]

Q: Which AC50 does the source give for `Cc1ccccc1NC(=O)CSc1nc2cc3c(cc2cc1C)CCC3` here?
A: 31.6 µM [rising, single point]

Q: For `CCOc1ncccc1C(=O)NCc1ccc(OC)cc1`, which AC50 is on record?
A: 0.316 µM [falling, partial curve, poor fit]

Q: For `C=CCn1c(NCCOC)nc2c1c(=O)n(C)c(=O)n2C`, which AC50 is on record?
A: 0.0251 µM [rising, full curve, poor fit]

Q: With `CCn1cc(S(=O)(=O)CC(=O)Nc2cc(C)on2)c2ccccc21` as the molecule, how does the AC50 read?
A: 15.8 µM [rising, single point]

Q: For `Fc1ccc(/C=C/c2nnc(-c3cccs3)o2)cc1`, which AC50 is on record?
A: 35.5 µM [rising, single point]

Q: For `COc1ccc2cc(CN(Cc3cccnc3)Cc3nnnn3Cc3ccccc3)c(=O)[nH]c2c1`, which AC50 is on record?
A: 3.98 µM [falling, partial curve, poor fit]

Q: For `CNC(=O)c1ccc(N(Cc2ccccc2)S(C)(=O)=O)cc1`, which AC50 is on record?
A: 5.62 µM [falling, single point]

Q: With `CCOc1ccc(-n2nc3ccc(NC(=O)c4ccc(-c5cccc(Cl)c5)o4)cc3n2)cc1` as the molecule, how does the AC50 read?
A: 2.24 µM [falling, partial curve, poor fit]

Q: Which AC50 does the source give for `O=S(=O)(c1ccc2c(c1)OCCO2)N1CCC(n2cnc3cc(F)ccc32)CC1` here?
A: 3.98 µM [rising, full curve, poor fit]

Q: With `CC(=O)c1sc2nc(SCC(=O)N3CCCCC3)[nH]c(=O)c2c1C` as the molecule, how does the AC50 read?
A: 12.6 µM [rising, partial curve]

Q: With `Cc1ccc(-c2noc(CSc3nnc(Cc4cccs4)n3-c3ccccc3)n2)cc1` as the molecule, how does the AC50 read?
A: 0.562 µM [falling, single point]

Q: Which AC50 does the source give for `Cc1cc2ccccc2n2c(SCC(=O)Nc3cccc(C(F)(F)F)c3)nnc12` here?
A: 8.91 µM [rising, partial curve]

Q: Which AC50 does the source give for `CCOC(=O)CSc1nc2ccccc2n1C(=O)OCC` here?
A: 0.01 µM [rising, full curve, poor fit]

Q: For `COC(=O)c1ccccc1NC(=O)Nc1cccs1`, which AC50 is on record?
A: 31.6 µM [falling, single point]

Q: Which AC50 does the source give for `O=C(c1noc2c1CCCC2)N1CCN(c2ccc(F)cc2)CC1` here?
A: 1.58 µM [falling, partial curve, poor fit]

Q: For `COc1ccc(Cl)cc1NC(=O)c1ncn(-c2ccccc2)n1`, which AC50 is on record?
A: 25.1 µM [rising, single point]

Q: For `COc1ccc(CNC(=O)CCSCc2cccc(Cl)c2)c(OC)c1`, which AC50 is on record?
A: 35.5 µM [falling, single point]

Q: With `O=C(CSc1ncnc2c1oc1ccccc12)c1cccs1` as the molecule, how does the AC50 read?
A: 20 µM [rising, partial curve]

Q: For `Cc1c(NC(=O)c2cc(-c3cccs3)on2)c(=O)n(-c2ccccc2)n1C`, which AC50 is on record?
A: 0.00501 µM [rising, full curve, poor fit]

Q: For `CCC(C)NC(=O)CSC1=Nc2ccccc2C2=NC(CC(=O)NCc3ccccc3)C(=O)N12` (configuration not stated), which AC50 is on record?
A: 17.8 µM [falling, partial curve]

Q: For `CCOc1ccccc1NC(=O)C(Sc1ccccc1)c1ccccc1` (configuration not stated), which AC50 is on record?
A: 12.6 µM [rising, partial curve, poor fit]

Q: With `N#Cc1cc2c(nc1SCC(=O)Nc1nccs1)CCCCC2` as the molecule, how does the AC50 read?
A: 31.6 µM [rising, single point]

Q: Which AC50 does the source give for `CCOC(=O)C1CCN(C(=O)c2cn(CCOC)c(=O)c3c2c2ccccc2n3C)CC1` here?
A: 0.316 µM [rising, full curve]

Q: Which AC50 does the source give for `CC(C)CC(=O)NC(=S)Nc1ccccc1C(=O)Nc1ccccc1` here?
A: 5.01 µM [falling, partial curve, poor fit]

Q: With `CCc1nc(N)c(C#N)c(-c2ccncc2)c1C` as the molecule, how does the AC50 read?
A: 7.94 µM [falling, partial curve, poor fit]

Q: Which AC50 does the source give for `Nc1ncnc2c1nc(Br)n2[C@@H]1O[C@H]2COP(=O)(O)O[C@@H]2[C@H]1O` here?
A: 1.26 µM [falling, full curve, poor fit]

Q: Which AC50 does the source give for `O=C(Nc1cccc(NC(=O)c2cccs2)c1)c1ccco1` here?
A: 0.0251 µM [rising, full curve, poor fit]

Q: With `O=C(Cn1nnc(-c2ccccc2F)n1)Nc1cccc2ncccc12` as the molecule, how does the AC50 read?
A: 0.0631 µM [falling, full curve, poor fit]

Q: For `COCCCN1C(=O)C(O)=C(C(=O)c2ccco2)C1c1ccccc1` (configuration not stated), which AC50 is on record?
A: 12.6 µM [rising, partial curve]

Q: With `CCOC(=O)CN1CC23C=CC(O2)C(C(=O)Nc2ccc(OCC)cc2)C3C1=O` (configuration not stated) as the molecule, how does the AC50 read?
A: 2.82 µM [rising, partial curve, poor fit]

Q: Which AC50 does the source give for `CCn1c(NC)cc(=O)n(C)c1=O` here?
A: 3.16 µM [falling, single point]

Q: Which AC50 does the source give for `O=C(NCc1ccc(Cl)c(Cl)c1)c1ccco1` here?
A: 2 µM [rising, full curve, poor fit]

Q: Which AC50 does the source give for `COC(=O)c1ccc(C)c(NC(=O)CN(c2cc(OC)ccc2OC)S(C)(=O)=O)c1` here?
A: 0.01 µM [rising, full curve, poor fit]

Q: With `CCOC(=O)CN=C1CC(C)(C)CC2=C1Sc1ncnc(N(C)C)c1N2` as the molecule, how does the AC50 read?
A: 12.6 µM [falling, single point]

Q: With `Cc1ccc(-n2ncc3c(=O)[nH]c(SCC(=O)N4CCN(c5ccccc5)CC4)nc32)cc1` as the molecule, how does the AC50 read?
A: 31.6 µM [rising, single point]

Q: With `COC(=O)c1ccc(NC(=O)CSc2nnc(-c3ccncc3)n2N)cc1` as the molecule, how does the AC50 read?
A: 3.16 µM [falling, full curve, poor fit]

Q: With `Cc1ccc(N(Cc2cc3ccccc3[nH]c2=O)S(=O)(=O)c2ccccc2)cc1` as the molecule, how does the AC50 read?
A: 0.00355 µM [rising, full curve, poor fit]

Q: With `COC(=O)C1=C(C)NC(=O)NC1c1ccsc1` (configuration not stated) as the molecule, how does the AC50 read?
A: 15.8 µM [falling, single point]

Q: With `CCCOc1ccc(C(=O)Nc2ccc(NC(=O)c3ccccc3)c(Br)c2)cc1` as the molecule, how does the AC50 read?
A: 14.1 µM [rising, single point]

Q: For `COC(=O)C1=C(C)NC(C)=C(C(=O)OC)C1C1CC=CCC1` (configuration not stated), which AC50 is on record?
A: 35.5 µM [rising, single point]

Q: Which AC50 does the source give for `CCCOc1cccc(C2/C(=C(/O)c3ccccc3)C(=O)C(=O)N2CCN(C)C)c1` (configuration not stated) here?
A: 1 µM [falling, full curve, poor fit]

Q: For `Cc1ccc(N=C2NC(=O)c3cc([N+](=O)[O-])ccc32)cc1`, which AC50 is on record?
A: 35.5 µM [rising, single point]

Q: Which AC50 does the source give for `O=C(NCCSc1ccccc1)c1ccccc1` here?
A: 0.02 µM [falling, full curve, poor fit]

Q: Which AC50 does the source give for `Cc1cc(C)n(C(=O)CNc2ccc(C)c(C)c2)n1` here?
A: 6.31 µM [falling, single point]

Q: For `COc1ccc2nc(N3CCC(C)CC3)c(C#N)cc2c1`, which AC50 is on record?
A: 0.0316 µM [falling, full curve, poor fit]

Q: For `CCc1cc(C=C(Cl)Cl)oc(=O)c1C`, which AC50 is on record?
A: 0.0126 µM [rising, partial curve, poor fit]

Q: For `Nn1c(SCc2cn3ccsc3n2)nnc1-c1ccncc1`, which AC50 is on record?
A: 0.631 µM [falling, full curve]

Q: For `CCCCc1nnc(NC(=O)C2CCCO2)s1` (configuration not stated), which AC50 is on record?
A: 7.08 µM [falling, partial curve, poor fit]

Q: For `O=C(N/C(=C/c1cccc(Br)c1)c1nc(=S)[nH][nH]1)c1ccccc1`, which AC50 is on record?
A: 14.1 µM [rising, single point]

Q: For `COc1cc(C)nc(N2CCCC(C(=O)Nc3cccc(Cl)c3C)C2)n1` (configuration not stated), which AC50 is on record?
A: 10 µM [falling, partial curve, poor fit]

Q: For `Cc1ccc(C)c(C(=O)n2cnnc2N)c1`, which AC50 is on record?
A: 1.26 µM [rising, single point]

Q: For `O=C(Nc1sc2c(c1C(=O)O)CCC2)c1cccs1`, which AC50 is on record?
A: 31.6 µM [falling, single point]

Q: For `COc1ccc(/C=N\n2nnc3ccccc32)cc1`, which AC50 is on record?
A: 0.251 µM [falling, full curve, poor fit]
